Data reported in US12060400B2, “Peptides for use in immunotherapy against cancers” (Immatics Biotechnologies GmbH, priority 2018, dated 2024).
For part of these data: Expression grades refer to the transcript from which the peptide derives; gene names, where given, were looked up from the sequence.

Tested on: source gene exon mRNA in tumor and normal tissue samples
Assay: Expression profiling (RNAseq) of genes encoding the peptides, tumor versus normal tissues
Set-up: species or system human
Conditions: FIGS. 2A-2Q; RNAseq FPKM, tumor versus normal samples

Substance | expression profile of source gene, over-expressed in different cancer samples
SEQ ID No.: 39: peptide found in ENPP3 (gene looked up) (KTYLPTFETTI; listed as Homo sapiens) | over-expressed
SEQ ID No.: 97: peptide found in OR51E2 (gene looked up) (TQMFFIHAL; listed as Homo sapiens) | over-expressed

Same assay, conditions: tumor types in which the peptide's exon is highly over-expressed (++) vs panel of normal tissues; RNAseq; Table 9a

Substance | Exon Expression in tumor types vs normal tissue panel: highly over-expressed (++)
57: peptide found in NPSR1 (gene looked up) (RYLQVVLLY; listed as Homo sapiens) [compound 57] | CRC, GBC, GC
128: peptide found in NMUR2 (gene looked up) (AFQNVISSF; listed as Homo sapiens) [compound 128] | GC, PACA
13: peptide found in CHRNA9 (gene looked up) (KYYIATMAL; listed as Homo sapiens) [compound 13] | GBM, HNSCC, SCLC
211: peptide found in PGR (gene looked up) (MLYFAPDLIL; listed as Homo sapiens) [compound 211] | UEC
251: peptide found in CNR2 (gene looked up) (DYLLSWLLF; listed as Homo sapiens) [compound 251] | CLL
165: peptide found in NAT1 (gene looked up) (KDQPQVPCVF; listed as Homo sapiens) [compound 165] | BRCA
219: peptide found in CCR8 (gene looked up) (KVVSGFYYI; listed as Homo sapiens) [compound 219] | NHL
156: peptide found in F5 (gene looked up) (IYPHGVTFSP; listed as Homo sapiens) [compound 156] | HCC
185: peptide found in CTLA4 (gene looked up) (LYICKVELM; listed as Homo sapiens) [compound 185] | CLL

Same assay, conditions: tumor types in which the peptide's exon is over-expressed (+) vs panel of normal tissues; RNAseq; Table 9a

Substance | Exon Expression in tumor types vs normal tissue panel: over-expressed (+)
57: peptide found in NPSR1 (gene looked up) (RYLQVVLLY; listed as Homo sapiens) [compound 57] | GBM, PACA
128: peptide found in NMUR2 (gene looked up) (AFQNVISSF; listed as Homo sapiens) [compound 128] | NSCLCsquam, UEC
342: peptide found in NPSR1 (gene looked up) (MYGIVIRTI; listed as Homo sapiens) [compound 342] | CRC, GBC, GC, PACA
13: peptide found in CHRNA9 (gene looked up) (KYYIATMAL; listed as Homo sapiens) [compound 13] | MEL, NSCLCadeno, NSCLCsquam, OC, OSCAR, UBC, UEC
181: peptide found in NMUR2 (gene looked up) (IHGIKFHYF; listed as Homo sapiens) [compound 181] | PACA, UEC
211: peptide found in PGR (gene looked up) (MLYFAPDLIL; listed as Homo sapiens) [compound 211] | BRCA
251: peptide found in CNR2 (gene looked up) (DYLLSWLLF; listed as Homo sapiens) [compound 251] | NHL
366: peptide found in TGM6 (gene looked up) (RLGEFVLLF; listed as Homo sapiens) [compound 366] | HNSCC, NSCLCsquam
219: peptide found in CCR8 (gene looked up) (KVVSGFYYI; listed as Homo sapiens) [compound 219] | BRCA, CCC, HNSCC, MEL, NSCLCadeno, NSCLCother, NSCLCsquam, OSCAR, UBC
156: peptide found in F5 (gene looked up) (IYPHGVTFSP; listed as Homo sapiens) [compound 156] | CCC
185: peptide found in CTLA4 (gene looked up) (LYICKVELM; listed as Homo sapiens) [compound 185] | NHL

Same assay, conditions: tumor types in which the peptide's exon is very highly over-expressed (+++) vs panel of normal tissues; RNAseq; Table 9a

Substance | Exon Expression in tumor types vs normal tissue panel: very highly over-expressed (+++)
13: peptide found in CHRNA9 (gene looked up) (KYYIATMAL; listed as Homo sapiens) [compound 13] | NSCLCother

Tested on: HLA molecules of primary tumor and normal tissue samples (cancer entities)
Assay: Identification and label-free LC-MS quantitation of HLA-presented tumor-associated peptides on tissue samples
Set-up: species or system human
Conditions: FIGS. 1A-1J; HLA-A*24 positive normal (N=75) versus tumor samples (N=263), MS signal intensities

Substance | over-presentation of the peptide in different cancer tissues
SEQ ID NO.: 463 (VGGNVTSNF; listed as Homo sapiens) | over-presentation

Same assay, conditions: cancer entities on whose tumor tissue samples the HLA-presented peptide was found (LC-MS); abbreviations in the footnotes of Table 8a

Substance | Peptide Presentation on cancer entities
174 (TYGEEMPEEI; listed as Homo sapiens) [compound 174] | PRCA
261 (IMFCLKNFWW; listed as Homo sapiens) [compound 261] | NSCLCadeno, OC
329 (YLGKNWSF; listed as Homo sapiens) [compound 329] | AML, CCC
197 (YYHSGENLY; listed as Homo sapiens) [compound 197] | GC, NSCLCadeno
47 (SYLWTDNLQEF; listed as Homo sapiens) [compound 47] | OSCAR
361 (KQPANFIVL; listed as Homo sapiens) [compound 361] | GBC
324 (RYFVSNIYL; listed as Homo sapiens) [compound 324] | GC, NSCLCadeno, NSCLCsquam, UEC
229 (CAMPVAMEF; listed as Homo sapiens) [compound 229] | NHL
222 (HYHAESFLF; listed as Homo sapiens) [compound 222] | OSCAR
336 (VYSDLHAFY; listed as Homo sapiens) [compound 336] | CCC, GBC, HCC, NSCLCadeno, PACA
77 (LYGFFFKI; listed as Homo sapiens) [compound 77] | GC, HCC, UBC
6 (IVTFMNKTLGTF; listed as Homo sapiens) [compound 6] | NSCLCadeno
135 (KYKQHFPEI; listed as Homo sapiens) [compound 135] | HCC
363 (QYGFNYNKF; listed as Homo sapiens) [compound 363] | GC, NSCLCsquam
113 (ALMSAFYTF; listed as Homo sapiens) [compound 113] | NSCLCsquam
379 (KLPTEWNVL; listed as Homo sapiens) [compound 379] | CCC, CLL, CRC, GC, HCC, NHL, NSCLCadeno, NSCLCother, OSCAR, RCC, UEC
169 (MYDLHHLYL; listed as Homo sapiens) [compound 169] | NSCLCsquam
337 (SHSDHEFLF; listed as Homo sapiens) [compound 337] | UEC
349 (IYMTTGVLL; listed as Homo sapiens) [compound 349] | GC, NSCLCadeno
339 (KQVIGIHTF; listed as Homo sapiens) [compound 339] | CLL, GBC, GBM, GC, RCC

Substance | Peptide Presentation on cancer entities
345 (RYLEEHTEF; listed as Homo sapiens) [compound 345] | GBC, NSCLCadeno, OC, UEC
323 (NYSPVTGKF; listed as Homo sapiens) [compound 323] | OSCAR
188 (SLPGSFIYVF; listed as Homo sapiens) [compound 188] | NSCLCadeno, RCC
140 (IFQHFCEEI; listed as Homo sapiens) [compound 140] | CLL
255 (VYLDEKQHAW; listed as Homo sapiens) [compound 255] | CLL, NHL
302 (YQGSLEVLF; listed as Homo sapiens) [compound 302] | NSCLCadeno
100 (KVWSDVTPLTF; listed as Homo sapiens) [compound 100] | CCC, NSCLCsquam, PACA
208 (QYLQQQAKL; listed as Homo sapiens) [compound 208] | NSCLCadeno
368 (AYFVAMHLF; listed as Homo sapiens) [compound 368] | GBC, GBM, HNSCC, MEL, NHL, NSCLCadeno, NSCLCother, NSCLCsquam, OC, SCLC, UEC
23 (VYSSFVFNLF; listed as Homo sapiens) [compound 23] | NHL
90 (TDLVQFLLF; listed as Homo sapiens) [compound 90] | RCC
320 (EVYQKIILKF; listed as Homo sapiens) [compound 320] | GBC
136 (YLKSVQLF; listed as Homo sapiens) [compound 136] | NSCLCsquam
332 (VYCSLDKSQF; listed as Homo sapiens) [compound 332] | BRCA, CCC, GBC, GC, MEL
105 (ITPATALLL; listed as Homo sapiens) [compound 105] | NHL
194 (EYFLPSLEII; listed as Homo sapiens) [compound 194] | CLL
73 (YFCSTKGQLF; listed as Homo sapiens) [compound 73] | CLL, NHL
132 (TFEGATVTL; listed as Homo sapiens) [compound 132] | CRC, MEL, NHL
65 (EYLLMIFKLV; listed as Homo sapiens) [compound 65] | NSCLCadeno, NSCLCsquam, PRCA
